Sequences of proteins named here, by UniProt entry; tags and fusion partners are left off. A change or cut given only in a name is not applied to a line headed by its entry.
UniProt O00161: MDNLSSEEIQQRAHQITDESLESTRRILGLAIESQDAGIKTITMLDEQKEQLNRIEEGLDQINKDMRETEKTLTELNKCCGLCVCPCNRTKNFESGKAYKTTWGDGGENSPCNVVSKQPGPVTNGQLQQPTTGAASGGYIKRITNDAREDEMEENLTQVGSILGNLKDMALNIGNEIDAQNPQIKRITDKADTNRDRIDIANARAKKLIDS
UniProt P19474: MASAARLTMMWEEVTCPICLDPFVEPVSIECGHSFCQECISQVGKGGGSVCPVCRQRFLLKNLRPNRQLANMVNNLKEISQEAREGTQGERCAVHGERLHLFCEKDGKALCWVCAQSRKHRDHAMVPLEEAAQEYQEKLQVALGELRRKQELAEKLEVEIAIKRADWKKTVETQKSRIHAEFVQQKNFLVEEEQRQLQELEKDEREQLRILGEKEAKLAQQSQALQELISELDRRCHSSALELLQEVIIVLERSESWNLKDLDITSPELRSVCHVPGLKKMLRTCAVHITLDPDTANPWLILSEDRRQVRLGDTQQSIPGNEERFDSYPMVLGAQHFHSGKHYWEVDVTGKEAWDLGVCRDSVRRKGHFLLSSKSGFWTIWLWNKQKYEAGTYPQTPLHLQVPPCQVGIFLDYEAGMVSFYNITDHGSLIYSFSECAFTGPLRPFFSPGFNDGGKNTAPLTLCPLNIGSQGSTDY

According to publication PMC12811313:

Tests used:
[1] = biological target: SNAP23 (in HEK293T cells) (UniProt O00161); assay: co-IP; lysates of HEK293T cells expressing Trim21 deletion mutants
[2] = biological target: T1, TFAM (in HEK293T cells) (UniProt Q00059); assay: as above
T1 sequence: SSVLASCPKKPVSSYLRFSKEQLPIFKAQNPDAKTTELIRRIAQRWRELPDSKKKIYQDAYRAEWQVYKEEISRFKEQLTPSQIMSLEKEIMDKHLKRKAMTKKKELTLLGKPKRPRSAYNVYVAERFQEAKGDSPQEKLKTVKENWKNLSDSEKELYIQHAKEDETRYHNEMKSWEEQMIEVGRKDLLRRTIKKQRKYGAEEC

In the case of “TRIM21 (△268–465aa) (from UniProt P19474) (domain or fragment)”, the binding [1] is reported as “no binding” and the binding [2] is reported as “no binding”.

No constants are given. Whether binding was seen depends on the method and setting. In cells and extracts the contact can be indirect.
